Test results reported in PubChem BioAssay AID1347076 (National Center for Advancing Translational Sciences (NCATS), 2019).
In all, about 400,000 compounds went through this assay and about 13,000 (3.2%) were called active. The shares of active, inactive and inconclusive entries below differ from those in the screen. The call rests on the fitted dose curve; in most records, active means well fitted cell-killing curve with a large enough effect; inconclusive means small, poorly fitted or top-dose-only effect, or effect the other way; inactive means flat fitted curve, though single readings scatter. Potencies of inconclusive entries are doubtful fits and often do not repeat.

assay: qHTS assay for MDR1-selective chemotherapeutics: Primary screen using the drug-selected MDR subline cells KB-V1; details: KB-V1 MDR cells viability, CellTiter-Glo, 72 h; activity change, negative = cytotoxicity: at 46.1 µM (top of the series); further: nearly all actives have a fitted effect of over 60% in size
Summary of the method: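 Drug-selected KB-V1 cells, grown in DMEM lacking phenol red with 10% FBS, receive compound titrations; after three days at 37 degrees C, surviving cell ATP is quantified by CellTiter-Glo luminescence and responses normalized and curve-fitted.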
On the % scale 0 is the no-effect control and ±100 the full control effect; potency means the concentration at half of the fitted maximal effect.

Row | Compound | activity change, negative = cytotoxicity | Potency
1 | O=C(Nc1nnc(-c2ccc(Br)cc2)o1)c1cccc(N2C(=O)CCC2=O)c1 | inactive: -14.6% | –
2 | O=C(NCc1cccc(C(F)(F)F)c1)C1CC(c2ccccc2F)=NO1 (centres undefined) | inactive: 0% | –
3 | CCOc1ccc2c(c1)nc(SCC(=O)c1ccc(Br)s1)n2C | – | active: 18.4 µM
4 | COc1ccc(CCCNC(=O)C2Cc3c(-c4cccc(NC(C)=O)c4)ccnc3O2)cc1 (centres undefined) | – | inconclusive: 20.6 µM [cytotoxic, single point]
5 | CC1Oc2ccccc2N(CC(=O)N2CCCCCC2)C1=O (centres undefined) | inactive: -2.39% | –
6 | O=C(N[C@H]1CC[C@H](CCNC(=O)C2CC2)O[C@@H]1CO)c1ccccn1 | inactive: 1.98% | –
7 | Cc1ccc(NC(=O)CN2CCOCC2)cc1Cl | – | inconclusive: 16.4 µM [rising, partial curve, poor fit]
8 | Cc1cc(Cl)ccc1NC(=O)C1CCN(S(=O)(=O)c2ccc3[nH]c(=O)ccc3c2)CC1 | inactive: -14.9% | –
9 | O=C(CCc1ccccc1)Nc1ccnn1C1CCN(Cc2ncc[nH]2)CC1 | – | inconclusive: 18.4 µM [rising, single point]
10 | Cc1cccc(Cn2c(=O)n(CCc3ccccc3)c(=O)c3sc4ccccc4c32)c1 | inactive: -0.365% | –
11 | c1ccc2c(-c3nc4ncccc4o3)cccc2c1 | – | inconclusive: 14.6 µM [cytotoxic, single point]
12 | CC(=O)c1cccc(-c2ccnc3c2CC(C(=O)NCc2ccco2)O3)c1 (centres undefined) | – | active: 0.92 µM
13 | Cc1ccc(NC(=S)NCC(C)CSc2ccc(Cl)cc2)cc1 (centres undefined) | inactive: 2.42% | –
14 | CCN(CC)C(=O)CSc1nnc([C@H](Cc2c[nH]c3ccccc23)NC(=O)OC(C)(C)C)o1 | – | active: 14.6 µM
15 | CN1C2CCC1CC(OC(c1ccccc1)c1ccccc1)C2 (centres undefined) | – | inconclusive: 0.0065 µM [rising, full curve]
16 | O=C(Cn1cnc2ccccc2c1=O)Nc1ccc(S(=O)(=O)N2CCOCC2)cc1 | – | inconclusive: 25.9 µM [rising, single point]
17 | O=C(Nc1cccc(O)c1)c1cnn2cccnc12 | – | inconclusive: 18.4 µM [cytotoxic, single point]
18 | COc1ccc(Br)cc1CN1CCCC(C(=O)N2CCCCCC2)C1 (centres undefined) | – | inconclusive: 5.17 µM [cytotoxic, partial curve, poor fit]
19 | Cc1ccc(C(C(=O)NC2CCCC2)N(Cc2ccccc2)C(=O)c2csnn2)o1 (centres undefined) | – | inconclusive: 7.31 µM [cytotoxic, partial curve]
20 | O=C(CSc1nc2ccc(NC(=O)CSc3nnnn3-c3ccccc3)cc2s1)Nc1ccccc1 | inactive: 0% | –
21 | CNS(=O)(=O)c1ccc(C(=O)NCC(=O)NC(C)c2cccs2)cc1 (centres undefined) | inactive: 3.69% | –
22 | O=C1/C(=C/c2ccncc2)SC(=S)N1Cc1ccccc1 | – | inconclusive: 25.9 µM [cytotoxic, single point]
23 | COc1cccc(C(=O)Nc2nc(-c3ccc(S(=O)(=O)N4CCOCC4)cc3)cs2)c1 | inactive: 0% | –
24 | CC(=O)c1ccc(Sc2ccccn2)c([N+](=O)[O-])c1 | inactive: 3.35% | –
25 | CC1CN(C(=O)Cn2cc(S(=O)(=O)CC(=O)N(C)c3ccccc3)c3ccccc32)CC(C)O1 (centres undefined) | – | inconclusive: 29.1 µM [rising, single point]

Row | Compound | activity change, negative = cytotoxicity | Potency
26 | Cc1cc2c(cc1C)C(c1cc(Br)ccc1F)CC(=O)N2 (centres undefined) | – | active: 13 µM
27 | CC1=C(C(=O)N(C(C)C)C(C)C)CC(CC(=O)NCCN2CCOCC2)C(=O)N1CCC1=CCCCC1 (centres undefined) | inactive: 3.83% | –
28 | c1ccc2c(c1)c1ccccc1n1c(-c3ccc4c(c3)OCO4)nnc21 | – | active: 20.6 µM
29 | N#CCCN(Cc1ccccc1)C(=S)NC(=O)c1ccccc1 | – | inconclusive: 29.1 µM [cytotoxic, single point]
30 | COC(=O)c1c(C)cc(O)c(C=O)c1O | inactive: -25% | –
31 | COc1ccc(NC(=O)CC2C(=O)NCCN2C(=O)Nc2ccc(C(F)(F)F)cc2)cc1 (centres undefined) | – | inconclusive: 29.1 µM [rising, single point]
32 | Cc1ccc(S(=O)(=O)N2CCN(CN3C(=O)CC4(CCCC4)C3=O)CC2)cc1 | inactive: -1.74% | –
33 | O=C1NCCc2c1[nH]c1ccccc21 | – | active: 6.51 µM
34 | CCOC(=O)c1ccc(N2CCCCC2)c(NS(=O)(=O)c2ccc(C)cc2)c1 | – | inconclusive: 13 µM [cytotoxic, partial curve, poor fit]
35 | CC(C)OCCCNc1nc2c(cnn2C)c(=O)[nH]1 | – | inconclusive: 29.1 µM [cytotoxic, single point]
36 | CCC1CCCCN1C(=O)CSc1n[nH]c(N)n1 (centres undefined) | – | inconclusive: 2.59 µM [rising, full curve]
37 | O=C(NC(c1ccco1)c1cc(Cl)c2cccnc2c1O)c1cccs1 (centres undefined) | – | inconclusive: 29.1 µM [cytotoxic, single point]
38 | CCN(C(=O)CSc1nc2ccccc2c(=O)n1-c1ccccc1F)C1CCS(=O)(=O)C1 (centres undefined) | inactive: -1.06% | –
39 | CC(=O)N/N=C(\C)c1cccc(C(F)(F)F)c1 | – | inconclusive: 18.4 µM [cytotoxic, single point]
40 | Cc1cc(C)c2nc(Nc3nc(-c4ccccc4)cc(=O)[nH]3)nc(C)c2c1 | – | inconclusive: 8.2 µM [cytotoxic, partial curve, poor fit]
41 | NC(=S)N/N=C/c1coc2cc(Br)ccc2c1=O | – | inconclusive: 25.9 µM [cytotoxic, single point]
42 | CCn1c(C(=O)N2CCCC(C(=O)NCCc3ccc(C)cc3)C2)cc2sccc21 (centres undefined) | – | active: 16.4 µM
43 | Cc1ccc(CN2CCN(/N=C/c3ccc(O)c(O)c3)CC2)cc1 | inactive: -0.512% | –
44 | O=C1NN=C(c2ccccc2)C1Cc1ccccc1 (centres undefined) | inactive: 5.85% | –
45 | CSc1ccc(Cl)c(C(=O)OCC(=O)N2CCN(C(=O)c3ccco3)CC2)c1 | – | inconclusive: 29.1 µM [rising, single point]
46 | Cc1cccc(C)c1NC(=O)c1ccc2sc([C@@H]3O[C@H](CO)[C@H](O)[C@H](O)[C@H]3O)nc2c1 | inactive: -7.98% | –
47 | CNC(=O)C[C@@H]1C(=O)N(C2CCCCC2)CC1(C)C | inactive: -11.3% | –
48 | Cc1nc2nc(SCC(=O)c3cccc([N+](=O)[O-])c3)[nH]c2cc1Br | inactive: -23.2% | –
49 | Cc1c(C(=O)NCc2ccccc2C(F)(F)F)sc(=O)n1Cc1ccccc1C#N | – | inconclusive: 7.31 µM [cytotoxic, partial curve]
50 | COc1ccc(NC(=O)CSc2nc3ccsc3c(=O)n2Cc2ccccn2)c(OC)c1 | – | inconclusive: 5.8 µM [cytotoxic, partial curve]

Row | Compound | activity change, negative = cytotoxicity | Potency
51 | CCN1CCN(S(=O)(=O)c2ccc(Cl)c(C(=O)N(C)Cc3cccs3)c2)CC1 | – | inconclusive: 20.6 µM [cytotoxic, single point]
52 | CCOc1ccc(NC(=O)C(C)Oc2ccccc2C(=O)Nc2ccc(C)c(Cl)c2)cc1 (centres undefined) | – | inconclusive: 29.1 µM [cytotoxic, single point]
53 | CCc1n(CC(O)COC2CCCCC2)c2ccccc2[n+]1C (centres undefined) | – | inconclusive: 23.1 µM [rising, single point]
54 | CCCCN(CC)C(=O)CSc1nc2ccccc2c(=O)n1CC1COc2ccccc2O1 (centres undefined) | – | inconclusive: 22.4 µM [cytotoxic, single point]
55 | COc1ccc(/C=C/C(=O)Oc2cccc(/C=N/NC(=O)COc3c(C)cccc3C)c2)cc1 | – | inconclusive: 29.1 µM [cytotoxic, single point]
56 | COc1ccc(C2C(Oc3ccccc3)C(=O)N2c2ccc(C)c(C)c2)cc1OC (centres undefined) | inactive: -7.17% | –
57 | COc1cc(-c2nc3cnccn3c2Nc2ccc3c(c2)OCCO3)ccc1O | – | inconclusive: 10.3 µM [cytotoxic, partial curve]
58 | COc1ccc2nc(C)cc(Nc3ccc(N4CCN(C)CC4)cc3)c2c1 | – | inconclusive: 29.1 µM [cytotoxic, single point]
59 | O=C(Cn1c(=O)oc2cc(S(=O)(=O)NCc3ccccc3)ccc21)NCc1ccc(F)cc1 | inactive: 14.7% | –
60 | COC(=O)[C@]1(C)N[C@H](CN(C)C(=O)COc2ccccc2)[C@@H]2C(=O)N(C)C(=O)[C@@H]21 | – | inconclusive: 23.1 µM [rising, single point]
61 | COc1ccc(/C=C/C(=O)Nc2ccc(Cl)c(Cl)c2)cc1OC | – | inconclusive: 29.1 µM [cytotoxic, single point]
62 | CCCCNC(=O)CCn1c(=O)c2ccccc2n(Cc2ccccc2C)c1=O | – | inconclusive: 7.31 µM [cytotoxic, partial curve]
63 | COc1ccc(-c2ccc(=O)n(CC(=O)Nc3ccc(N(C)C)cc3)n2)cc1 | inactive: -22.4% | –
64 | CCOCCCNC(=O)c1ccc2c(c1)N(CC)C(=O)c1ccccc1S2=O (centres undefined) | – | active: 18.4 µM
65 | CCn1c(NC(=O)c2ccc(F)cc2)c2ccccc2nc1=O | – | active: 10.3 µM
66 | CCC(Oc1ccccc1)C(=O)Nc1nnc(C(F)(F)F)s1 (centres undefined) | – | inconclusive: 29.1 µM [rising, single point]
67 | O=C(COc1ccc(Br)cc1CO)Nc1ccc(S(=O)(=O)N2CCCC2)cc1 | – | inconclusive: 16.4 µM [cytotoxic, partial curve]
68 | O=C(Cn1nc(C(F)(F)F)c2c1CCCC2)Nc1ccc(F)c(Cl)c1 | – | inconclusive: 18.4 µM [cytotoxic, single point]
69 | CCCOc1ccc(N2C(=O)CC(N3CCN(c4ccccc4F)CC3)C2=O)cc1 (centres undefined) | – | inconclusive: 0.0366 µM [cytotoxic, full curve]
70 | CC1(c2ccc(Cl)cc2Cl)NC(=O)N(CC(=O)NCCC2=CCCCC2)C1=O (centres undefined) | – | inconclusive: 32.6 µM [cytotoxic, single point]
71 | O=C(CCNS(=O)(=O)c1ccc(Br)cc1)NCC1CCCO1 (centres undefined) | inactive: -30.8% | –
72 | CCCCc1nn2c(=O)cc(COC(=O)CNC(=O)c3ccccc3C)nc2s1 | inactive: -15.6% | –
73 | CC(C)S(=O)(=O)c1csc(NC(=O)Nc2ccc(Cl)cc2)c1Cl | – | active: 20.6 µM
74 | COc1ccc2nc(SCC(=O)N3CCCCCC3)c(C#N)cc2c1 | – | inconclusive: 11.6 µM [cytotoxic, partial curve]

In the list so far, three contain a cyano group.
Row | Compound | activity change, negative = cytotoxicity | Potency
29 | N#CCCN(Cc1ccccc1)C(=S)NC(=O)c1ccccc1 | – | inconclusive: 29.1 µM [cytotoxic, single point]
49 | Cc1c(C(=O)NCc2ccccc2C(F)(F)F)sc(=O)n1Cc1ccccc1C#N | – | inconclusive: 7.31 µM [cytotoxic, partial curve]
74 | COc1ccc2nc(SCC(=O)N3CCCCCC3)c(C#N)cc2c1 | – | inconclusive: 11.6 µM [cytotoxic, partial curve]

Rewritten as labelled records: part of the list above.
COc1ccc(/C=C/C(=O)Nc2ccc(Cl)c(Cl)c2)cc1OC
  Potency: inconclusive: 29.1 µM [cytotoxic, single point]
CCCCNC(=O)CCn1c(=O)c2ccccc2n(Cc2ccccc2C)c1=O
  Potency: inconclusive: 7.31 µM [cytotoxic, partial curve]
